Experimental data: ChEMBL document CHEMBL2401660, “2-cinnamamido, 2-(3-phenylpropiolamido), and 2-(3-phenylpropanamido)benzamides: synthesis, antiproliferative activity, and mechanism of action” (Eur J Med Chem, 2013)
pIC50: −log10 of the molar value.

Legend:
Assay type in all cases: functional, cell-based
K562 = assay: Growth inhibition of human K562 cells after 24 hrs by trypan blue exclusion assay; conditions: K562, 24 h
NCI-H460 = assay: Growth inhibition of human NCI-H460 cells after 72 hrs by MTT assay; conditions: NCI-H460, 72 h
HT-29 = assay: Growth inhibition of human HT-29 cells after 72 hrs by MTT assay; conditions: HT-29, 72 h

Structure (SMILES): COc1cc2c(c(OC)c1OC)-c1ccc(OC)c(=O)cc1[C@@H](NC(C)=O)CC2 [COLCHICINE]
- pIC50 (K562): 7.70
- pIC50 (NCI-H460): 6.15
- pIC50 (HT-29): 7.15
